Assay in all cases: co-IP
Experiment [1] deals with GFP-GGA2 (Golgi-localized gamma ear-containing Arf-binding protein 2) (human) (UniProt Q9UJY4).
The target is the same in experiment [2]. The source holds these as a separate data set.
The target of experiment [3] is T1, GFP-GGA2 (Golgi-localized gamma ear-containing Arf-binding protein 2) (human), Q9UJY4.
T1 chain: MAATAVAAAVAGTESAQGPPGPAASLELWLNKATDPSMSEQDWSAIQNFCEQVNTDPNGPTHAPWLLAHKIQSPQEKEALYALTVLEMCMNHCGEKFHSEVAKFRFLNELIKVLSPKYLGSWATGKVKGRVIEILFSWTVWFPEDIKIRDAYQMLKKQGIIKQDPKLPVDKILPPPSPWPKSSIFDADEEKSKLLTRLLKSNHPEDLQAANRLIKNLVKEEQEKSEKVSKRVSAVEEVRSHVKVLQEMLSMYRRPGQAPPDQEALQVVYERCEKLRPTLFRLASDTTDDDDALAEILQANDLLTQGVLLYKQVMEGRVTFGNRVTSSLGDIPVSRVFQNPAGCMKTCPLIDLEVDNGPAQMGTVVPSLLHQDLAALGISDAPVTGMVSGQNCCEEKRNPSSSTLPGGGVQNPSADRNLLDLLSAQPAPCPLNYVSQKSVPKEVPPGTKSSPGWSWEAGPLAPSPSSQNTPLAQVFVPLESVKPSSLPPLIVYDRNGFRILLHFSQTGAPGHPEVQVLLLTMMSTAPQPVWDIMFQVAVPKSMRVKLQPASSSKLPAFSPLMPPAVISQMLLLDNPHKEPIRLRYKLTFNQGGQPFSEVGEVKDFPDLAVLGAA
The settings on record: remark: other sources report otherwise.

Amino acid sequences for entries named in this document (tags omitted).
UniProt P61026: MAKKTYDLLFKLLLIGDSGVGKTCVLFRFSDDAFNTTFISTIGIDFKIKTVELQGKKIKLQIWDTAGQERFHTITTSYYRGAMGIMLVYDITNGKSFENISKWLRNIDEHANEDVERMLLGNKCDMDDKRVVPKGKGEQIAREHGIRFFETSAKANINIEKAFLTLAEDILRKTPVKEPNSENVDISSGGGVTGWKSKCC
UniProt Q00610: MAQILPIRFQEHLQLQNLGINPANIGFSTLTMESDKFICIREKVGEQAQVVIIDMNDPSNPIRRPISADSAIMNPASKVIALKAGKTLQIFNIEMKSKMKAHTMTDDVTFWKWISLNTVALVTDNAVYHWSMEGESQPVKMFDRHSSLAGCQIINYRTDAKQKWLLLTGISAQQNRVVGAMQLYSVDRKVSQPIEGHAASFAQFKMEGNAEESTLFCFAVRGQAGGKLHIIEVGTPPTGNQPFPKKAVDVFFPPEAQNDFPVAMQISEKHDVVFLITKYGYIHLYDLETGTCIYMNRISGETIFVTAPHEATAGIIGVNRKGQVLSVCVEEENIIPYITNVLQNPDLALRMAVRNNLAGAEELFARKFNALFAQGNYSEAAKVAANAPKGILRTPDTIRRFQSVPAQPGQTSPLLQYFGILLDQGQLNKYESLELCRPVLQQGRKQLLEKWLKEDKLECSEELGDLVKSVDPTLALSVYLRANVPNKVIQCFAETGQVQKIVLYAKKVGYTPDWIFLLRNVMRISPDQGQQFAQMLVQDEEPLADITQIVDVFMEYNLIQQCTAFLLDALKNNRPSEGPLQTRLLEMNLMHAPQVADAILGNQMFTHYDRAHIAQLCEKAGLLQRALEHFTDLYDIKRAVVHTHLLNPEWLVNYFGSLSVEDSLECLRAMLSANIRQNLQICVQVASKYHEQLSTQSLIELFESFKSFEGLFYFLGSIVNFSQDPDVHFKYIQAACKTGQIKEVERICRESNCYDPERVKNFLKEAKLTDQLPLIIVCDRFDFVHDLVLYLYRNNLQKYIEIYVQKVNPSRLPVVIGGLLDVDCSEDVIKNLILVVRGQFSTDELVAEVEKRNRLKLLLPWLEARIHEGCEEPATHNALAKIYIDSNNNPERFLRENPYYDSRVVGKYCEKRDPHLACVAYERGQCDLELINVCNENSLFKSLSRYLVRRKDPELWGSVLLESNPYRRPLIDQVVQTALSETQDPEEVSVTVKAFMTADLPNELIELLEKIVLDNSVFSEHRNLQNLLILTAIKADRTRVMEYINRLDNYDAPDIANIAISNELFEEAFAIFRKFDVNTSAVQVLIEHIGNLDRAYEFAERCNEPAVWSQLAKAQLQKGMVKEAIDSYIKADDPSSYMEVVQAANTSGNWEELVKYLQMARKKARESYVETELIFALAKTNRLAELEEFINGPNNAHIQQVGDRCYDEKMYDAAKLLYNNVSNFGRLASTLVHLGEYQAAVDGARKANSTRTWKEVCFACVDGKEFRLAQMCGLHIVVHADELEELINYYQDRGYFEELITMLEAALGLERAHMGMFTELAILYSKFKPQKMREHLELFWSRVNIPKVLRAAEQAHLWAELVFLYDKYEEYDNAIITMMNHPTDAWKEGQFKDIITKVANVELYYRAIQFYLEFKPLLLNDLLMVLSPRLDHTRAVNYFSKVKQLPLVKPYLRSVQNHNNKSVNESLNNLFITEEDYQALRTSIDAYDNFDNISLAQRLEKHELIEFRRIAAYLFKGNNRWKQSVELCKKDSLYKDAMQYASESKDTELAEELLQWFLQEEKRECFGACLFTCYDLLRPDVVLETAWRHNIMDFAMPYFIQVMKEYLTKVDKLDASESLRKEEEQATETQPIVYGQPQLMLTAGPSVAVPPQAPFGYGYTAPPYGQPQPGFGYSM

In experiment [4] the target is T1, GFP-GGA2 (Golgi-localized gamma …). The settings on record: remark: other sources report otherwise.

Where two headings read alike, the source gives them in different places. These are yes or no findings as the source states them, for the method shown. Binding seen in cells or lysates may run through a third protein. Some results given as binding are weak or reduced against the parent protein; the word gives no strength. For part of these data: Sequences can lack the tags named with a protein.

Experimental findings from publication doi:10.1101/353086 are described below.

Turning to “RAB10 (endogenous) (from UniProt P61026 1-200)”, the binding entry in experiment [1] was “binds”. For the molecule “clathrin (endogenous) (from UniProt Q00610 1-1675)”, the binding entry in experiment [2] and in experiment [1] was “binds” in each case.

B1: GGA3 (endogenous), Q9NZ52 1-723 (protein)
chain: MAEAEGESLESWLNKATNPSNRQEDWEYIIGFCDQINKELEGPQIAVRLLAHKIQSPQEWEALQALTVLEACMKNCGRRFHNEVGKFRFLNELIKVVSPKYLGDRVSEKVKTKVIELLYSWTMALPEEAKIKDAYHMLKRQGIVQSDPPIPVDRTLIPSPPPRPKNPVFDDEEKSKLLAKLLKSKNPDDLQEANKLIKSMVKEDEARIQKVTKRLHTLEEVNNNVRLLSEMLLHYSQEDSSDGDRELMKELFDQCENKRRTLFKLASETEDNDNSLGDILQASDNLSRVINSYKTIIEGQVINGEVATLTLPDSEGNSQCSNQGTLIDLAELDTTNSLSSVLAPAPTPPSSGIPILPPPPQASGPPRSRSSSQAEATLGPSSTSNALSWLDEELLCLGLADPAPNVPPKESAGNSQWHLLQREQSDLDFFSPRPGTAACGASDAPLLQPSAPSSSSSQAPLPPPFPAPVVPASVPAPSAGSSLFSTGVAPALAPKVEPAVPGHHGLALGNSALHHLDALDQLLEEAKVTSGLVKPTTSPLIPTTTPARPLLPFSTGPGSPLFQPLSFQSQGSPPKGPELSLASIHVPLESIKPSSALPVTAYDKNGFRILFHFAKECPPGRPDVLVVVVSMLNTAPLPVKSIVLQAAVPKSMKVKLQPPSGTELSPFSPIQPPAAITQVMLLANPLKEKVRLRYKLTFALGEQLSTEVGEVDQFPPVEQWGNL
Take B1: the binding entry in experiment [3] and in experiment [4] was “binds” each time.

B2: RAB13 (endogenous) (protein, UniProt P51153 1-203)
chain: MAKAYDHLFKLLLIGDSGVGKTCLIIRFAEDNFNNTYISTIGIDFKIRTVDIEGKKIKLQVWDTAGQERFKTITTAYYRGAMGIILVYDITDEKSFENIQNWMKSIKENASAGVERLLLGNKCDMEAKRKVQKEQADKLAREHGIRFFETSAKSSMNVDEAFSSLARDILLKSGGRRSGNGNKPPSTDLKTCDKKNTNKCSLG
Regarding B2, in experiment [1], the binding result is recorded as “binds”.
